# Measurements reported in PubChem BioAssay AID1508588 (Peter MacCallum Cancer Centre, 2020).
# Assay: 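Which gene losses make BRAF-mutant melanoma cells more responsive to vemurafenib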 (primary screen)
# System: human WM266.4 melanoma cells (BRAF V600 mutant)
# Reagent: siRNA pool against human genes, 40 nM
# Time to read-out: 96 h from transfection to read-out
# Challenge: vemurafenib 300 nM (about IC25), added 48 h after transfection, for 48 h; comparison arm got DMSO vehicle only
# Measurement: 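Cell gain (DAPI nuclei at end minus before drug, mean of two replicates) and medium lactate by absorbance per cell, both as ratio to non-targeting siRNA, also grouped into fold-change classes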
# Scale: cell gain with vemurafenib: higher = more cell gain than with non-targeting siRNA; lactate per cell with vemurafenib: higher = more lactate made per cell
# Active means: 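Enhancement is called by pairing each knock-down's vehicle-arm and drug-arm fold-change classes for viability or glycolysis; which class combinations qualify is not given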
# Meaning of the calls: active = enhances vemurafenib effect; inactive = no enhancement seen
# This is a random part of about 18,000 reagents tested. In the full data, 790 (4.4%) are marked active. 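Calls rest on a combination of fold-change classes in drug and vehicle arms, not all shown here.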
gene,cell gain with vemurafenib,lactate per cell with vemurafenib,Outcome
CREB3L4,0.45,1.15,inactive
KIF9,0.48,1.08,inactive
CSE1L,0.5,0.38,inactive
TIGD3,-0.03,1.32,inactive
CSTF3,0.46,0.27,inactive
AP1M1,0.85,1.16,inactive
LYPD3,0.58,1.06,inactive
FAM3A,0.55,1.19,inactive
NT5C1A,0.13,0.8,inactive
ZNF181,0.67,0.83,inactive
ODAM,0.86,0.79,inactive
ALX1,0.79,1.16,inactive
BBS9,0.77,0.73,inactive
GUCY1A2,0.24,1.93,inactive
RSPH6A,0.36,1.3,inactive
MRAP,0.86,0.6,inactive
KCNMB4,0.67,0.73,inactive
KCNAB1,0.44,1.37,inactive
LRRC73,0.38,1.36,inactive
GALM,0.87,0.52,inactive
FBXL15,0.24,2.79,inactive
CAPRIN1,0.16,2.97,inactive
BRD2,0.62,1.17,inactive
ETHE1,0.5,1.18,inactive
DTWD2,0.89,0.7,inactive
CZIB,0.63,1.36,inactive
TRIM64,0.34,1.88,inactive
SENP8,0.51,0.81,inactive
SAP18,0.34,1.52,inactive
ZNF775,0.43,1.57,inactive
RSPH10B,0.36,1.09,inactive
OGFRL1,0.69,1.16,inactive
RPS19,-0.1,2.34,inactive
TGIF2LY,0.34,1.23,inactive
SLC34A2,0.27,0.84,inactive
RWDD4,0.39,0.91,inactive
NKAIN2,1.01,0.66,inactive
HMG20B,0.68,1.21,inactive
SPIRE2,0.12,1.31,inactive
FOXI2,0.36,1.27,inactive
IL18BP,0.47,2.04,inactive
GRIN2A,0.89,0.93,inactive
SPATS2,0.57,1.21,inactive
RAB12,0.35,1.01,inactive
NSUN6,0.47,1.36,inactive
FRMPD1,0.88,1.08,inactive
MRGPRE,0.69,0.8,inactive
TENM1,0.17,1.22,active
MFSD6L,0.32,0.64,inactive
OR1K1,0.08,1.4,inactive
EPHB6,0.67,0.8,inactive
LDLRAD2,0.23,2.92,inactive
DKC1,0.63,0.5,inactive
TAGLN,0.32,1.21,inactive
PRKCH,0.23,2.23,inactive
ASNS,0.77,0.8,inactive
DKK2,0.42,1.12,inactive

A stretch taken from the entries so far, for reference:
gene,cell gain with vemurafenib,lactate per cell with vemurafenib,Outcome
CSTF3,0.46,0.27,inactive
AP1M1,0.85,1.16,inactive
LYPD3,0.58,1.06,inactive
FAM3A,0.55,1.19,inactive
NT5C1A,0.13,0.8,inactive
